Test results as given in US20210388068A1.
Results are given in words; binding and its absence hold for the method and conditions named. Some binding calls cover weakened binding; strength is not graded here. Where a sequence is shown, tags or fusion partners need not be part of it.

Key:
[1] = biological target: T1, N-terminal adhesin domain of CfaE fused to maltose-binding protein (MBP-CfaE-N) (enterotoxigenic Escherichia coli (ETEC)) (UniProt P25734); test: SPR, comparison of KD
T1 sequence (looked up): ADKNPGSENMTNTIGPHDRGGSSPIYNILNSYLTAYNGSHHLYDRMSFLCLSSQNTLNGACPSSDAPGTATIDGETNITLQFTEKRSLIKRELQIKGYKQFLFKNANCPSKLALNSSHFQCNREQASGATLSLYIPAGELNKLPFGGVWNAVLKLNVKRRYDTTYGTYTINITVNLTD

[2] = biological target: T1, N-terminal adhesin domain of CfaE fused to maltose-binding protein (MBP-CfaE-N) (enterotoxigenic Escherichia coli (ETEC)); test: ELISA, plate-coated MBP-CfaE-N
[3] = biological target: T1, N-terminal adhesin domain of CfaE fused to maltose-binding protein (MBP-CfaE-N) (enterotoxigenic Escherichia coli (ETEC)); test: ELISA on plate-bound wild-type MBP-CfaE-N, OD405
[4] = biological target: T1, N-terminal adhesin domain of CfaE fused to maltose-binding protein (MBP-CfaE-N) (enterotoxigenic Escherichia coli (ETEC)); test: ELISA on plate-bound MBP-CfaE-N, anti-human IgG Fc-AP, OD405
[5] = biological target: T1, N-terminal adhesin domain of CfaE fused to maltose-binding protein (MBP-CfaE-N) (enterotoxigenic Escherichia coli (ETEC)); test: SPR, Biacore T200, HuMAb captured on anti-human IgG, MBP-CfaE-N as analyte, 25 C
[6] = biological target: T1, N-terminal adhesin domain of CfaE fused to maltose-binding protein (MBP-CfaE-N) (enterotoxigenic Escherichia coli (ETEC)); test: SPR, comparison of KD (member of the lower-affinity set)

Measured: binding

B1: anti-CfaE HuMab 68-48 (antibody, human IgG1, V domains shown)
VH: QVQLQQWGAGLLKPSETLSLTCAVYGGSFSGYSWSWIRQSPGKGLEWIGEIYHSGSTNYNPSLKSRVTISGDTSKNQFSLKLSSVTAADTAVYYCARENLQGYYYYGMDVWGQGTTVTVSS
VL: AIQLTQSPSSLSASVGDRVTITCRASQGISSSLAWYQQKPGKAPKLLIYDASSLESGVPSRFSGSGSGTDFTLTISSLQPEDFATYYCQQFNSYPRTFGQGTKVEIK
not listed: [6]
binds: all other assays above

B2: anti-CfaE HuMab 68-61 (antibody, human IgG1, V domains shown)
VH: QVQLVQSGAEVKNPGSSVRVSCEASGGTFSSFAISWVRQAPGQGLEWMGRIIPILDIVKYAQRFQGRVTISADKSTSTAYMELSSLRSEGTAVYYCARDDIAGSDFDIWGQGTMVTVSS
VL: DIQMTQSPSSLSASVGDRVTITCRASQGISSWLAWYQQKPEKAPKSLIYAASSLQSGVPSRFSGSGSGTDFTLTISSLQPEDFATYYCQQYTSYPYTFGQGTKLEIK
not listed: [1]
binds: all other assays above

B3: anti-CfaE HuMab 68-90 (antibody, human IgG1, V domains shown)
VH: QVQLQQWGAGLLKPSETLSLTCAVYGGSFSAYYWSWIRQPPGKGLEWIGEINHSGNTNYNPSLESRVTISVDTSKNQVSLKQSSVTAADTAVYYCARNWGPNAFDIWGRGTMVTVSS
VL: DIQMTQSPSSVSASVGDRVTITCRASQDITSWLVWYQHKPGKAPKLLIYAASSLQSGVPSRFSGSGSGTDFTLTISSLQPEDFATYYCQQANIFPYTFGQGTKLEIK
not listed: [1]
binds: all other assays above
